Some results were stated once for a whole list of compounds, not compound by compound.
What was measured:
[1] = tested on: collagen-induced arthritis mouse; test: Collagen-induced arthritis in mice; format: in vivo
Method: Efficacy evaluation of Compound (I) was performed using a collagen-induced arthritis in mice as an animal model of rheumatoid arthritis. The collagen-induced arthritis was caused following an ordinary method. That is, 0.1 ml of emulsion was injected to a mouse (DBA/1J, male, Charles River Laboratories Japan) at the base of the tail under etherization as primary immunization. The emulsion was prepared by mixing the same volume of a bovine type II collagen solution (2 mg/ml, Collagen Kenshukai) and Freund Complete Adjuvant (Difco). 0.1 ml of emulsion of the same composition was injected at the base of the tail as booster immunization after three weeks and arthritis was caused. The severity of arthritis was indicated as a score according to the following criteria.
1: Swelling at two or less joints
2: Swelling at three or more joints/Slight redding and edema at limbs
3: Swelling at three or more joints/Moderate redding and edema at limbs
4: Severe redding and edema at limbs/Ankylosis
Evaluation is performed for each limb with 0 to 4 points and therefore the possible maximum score in one individual is 16.
Compound (I) and prednisolone (positive control) were suspended in 0.5% methylcellulose solution and 0.1 ml per 10 g mouse weight was orally administered. In a control group, only 0.5% methylcellulose solution was orally administered. The administration was started with the primary immunization and carried out once a day for consecutive 35 days.

[2] = tested on: adjuvant-induced arthritis rats; test: Adjuvant-induced arthritis, therapeutic and prophylactic model; format: in vivo, rat; settings: prophylactic model
Method: The adjuvant-induced arthritis model is a representative chronic inflammation model caused in rats, and it is widely used for pharmacological evaluation of antiinflammatory drugs and antirheumatic drugs. Accordingly, effects of Compound (I) and Compound (II) were examined in both therapeutic and prophylactic model. In the therapeutic model, the difference of the volume of a hind leg before and after the dosed period was calculated to examine edema suppression effect by the drug administration and the change of edema volume was examined. In the prophylactic model, the volume of a hind paw was measured over time during the dosed period and the effect of the drug for a long term period was examined. Although the hind paw volume or the edema volume was used as the index of efficacy evaluation, the edema volume means the increment from the normal volume of the hind paw which was not sensitized with the adjuvant, and therefore, the both indices can be used as approximately the same meaning.
A liquid paraffin suspension (1 mg/200 μl) of Mycobacterium butyricum (adjuvant) was subcutaneously injected at the tarsal part of the right hind paw of SD or Lewis rats (both male, six-week old) to cause arthritis. In the therapeutic model, 0.5% methylcellulose suspension of Compound (I) or Compound (II) which was prepared so that the dose was 1 ml per 100 g body weight was orally administered once a day for consecutive five days from the 17th day after the injection of the adjuvant. An indomethacin suspension prepared in the similar way was administered as the positive control. The volume of the hind paws was measured respectively for the right and the left by water replacement method just before the administration and in five hours after the last administration and the difference in the values just before the administration and in five hours after the last administration was calculated and assumed as the change in the edema volume. In the prophylatic model, the compounds were administered once a day for consecutive 21 days after the day when the adjuvant was injected. The volume of the right and left hind paws was measured by water replacement method every other day. In the prophylactic model of Compound (II), a suspension of D-penicillamine, an antirheumatic drug, was administered in the same way as a control.

[3] = 3 mg/kg oral once a day 35 days
[4] = 10, 20, 40 and 80 mg/kg oral once a day 35 days

C[C@]12C=CC(=O)C=C1CC[C@@H]1[C@@H]2[C@@H](O)C[C@@]2(C)[C@H]1CC[C@]2(O)C(=O)CO [Prednisolone, prednisolone, reference compound]
p, arthritis onset ratio, Fischer's direct probability method [1, 3]: < 0.01
p, arthritis score, Wilcoxon's test [1, 3]: < 0.01

C[C@@H](c1ccc(-c2ccccc2)c(F)c1)c1cc(/N=C(/N)N2CCOCC2)on1 [Compound (I), 3-[(1S)-1-(2-fluorobiphenyl-4-yl)ethyl]-5-{[amino(morpholin-4-yl)methylene]amino}isoxazole]
p, arthritis onset ratio, Fischer's direct probability method with Bonferroni's correction [1, 4]: < 0.01
p, arthritis score, Shirley-Williams multiple comparison test [1, 4]: < 0.01
p, right hind paw volume (AUC value), Williams's multiple comparison ([2]; 20 mg/kg): < 0.01
p, both right and left hind paw volumes (AUC value), Williams's multiple comparison ([2]; 40 mg/kg): < 0.01
p, both right and left hind paw volumes (AUC value), Williams's multiple comparison ([2]; 80 mg/kg): < 0.01

COc1ccc2c(c1)c(CC(=O)O)c(C)n2C(=O)c1ccc(Cl)cc1 [Indomethacin, indomethacin, reference compound]
p, both right and left hind paw volumes (AUC value), Student's t-test ([2]; 0.5 mg/kg): < 0.01

Source: patent US20080255121A1, “Combination Drug for Treating Autoimmune Disease” (DAINIPPON SUMITOMO PHARMA CO., LTD., priority 2004, published 2008)
